# Results from patent US10106540B2, “HDAC6 inhibitors and their uses” (Universität Regensburg, priority 2014, dated 2018).
# At least one structure is not confirmed: it was looked up by name or label, or the drawing left a doubt.
# Tested on: HCT-116 cells
# Test: Western blot analysis in HCT-116 colon cancer cells
# Assay type: cell-based, human
# Details: 24 h
# Protocol: FIG. 5. Various cancer cells were treated for 24 h as shown and tested by Western blot analysis. […] Human colon cancer cell lines RKO (ATCC Accession No: CRL-2577) and HCT-116 (DSMZ Accession No: ACC-581). Western Blot Analysis a […] Protein lysate ([…]) was boiled in Laemmli buffer and separated on SDS-polyacrylamide gel electrophoresis for western blotting with specific antibodies. All lysates were assessed by Bradford assay for protein concentrations.
smiles,measurement,value
"CCCC(=O)O [butyrate, reference compound]",tubulin acetylation and degradation,degradation of tubulin
